Laboratory results: PubChem BioAssay AID1159584 (Peter MacCallum Cancer Centre, 2016)

- Screen: 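Genes that CDH1-null MCF10A cells selectively depend on to survive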 (primary screen)
- Cells: human MCF10A breast epithelial cells, parental and CDH1-null
- Knock-down reagent: siRNA against human genes
- Detection: 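ATP luminescence (CellTiter-Glo) viability per line relative to mean mock wells over all plates, and the ratio of CDH1-null to parental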
- Direction: CDH1-null / parental viability ratio: higher = CDH1-null cells survive relatively better than parental; CDH1-null viability vs mock: higher = more viable CDH1-null cells
The deposit covers about 18,000 reagents; shown is a random part of them. Further read-outs or replicates are left out here. Not given: the amount of reagent, the time to read-out.

| gene | CDH1-null / parental viability ratio | CDH1-null viability vs mock (fraction of mock) |
| --- | --- | --- |
| MT1HL1 (GeneID 645745) | 1.12 | 0.99 |
| MAGEA9B (GeneID 728269) | 1.06 | 1.03 |
| PCNT (GeneID 5116) | 0.89 | 0.4 |
| IQCN (GeneID 80726) | 1.14 | 0.96 |
| OR1K1 (GeneID 392392) | 1.6 | 1.15 |
| ZNF264 (GeneID 9422) | 1.16 | 0.74 |
| FIBIN (GeneID 387758) | 0.83 | 0.48 |
| BTNL8 (GeneID 79908) | 0.9 | 0.7 |
| ETV3L (GeneID 440695) | 0.54 | 0.34 |
| GC (GeneID 2638) | 1.22 | 0.93 |
| CDK2 (GeneID 1017) | 0.75 | 0.72 |
| CLDN19 (GeneID 149461) | 0.99 | 0.78 |
| PDF (GeneID 64146) | 1.27 | 0.94 |
| LIPJ (GeneID 142910) | 1.11 | 1.07 |
| TCAIM (GeneID 285343) | 1.17 | 1.08 |
| PTTG1IP (GeneID 754) | 0.98 | 0.86 |
| BIRC3 (GeneID 330) | 0.96 | 0.94 |
| TBC1D31 (GeneID 93594) | 1.09 | 0.72 |
| VOPP1 (GeneID 81552) | 1.32 | 0.95 |
| HCFC2 (GeneID 29915) | 1.07 | 0.92 |
| GNRHR (GeneID 2798) | 1.16 | 0.89 |
| ARMC6 (GeneID 93436) | 1.41 | 0.96 |
| EVI5L (GeneID 115704) | 1.02 | 0.82 |
| PLP1 (GeneID 5354) | 0.8 | 0.8 |
| RRAGC (GeneID 64121) | 0.94 | 0.58 |
| BARX1 (GeneID 56033) | 0.87 | 0.71 |
| SLC25A10 (GeneID 1468) | 1.02 | 0.92 |
| REG4 (GeneID 83998) | 0.94 | 1.14 |
| GRIP1 (GeneID 23426) | 0.97 | 0.6 |
| KRTAP4-5 (GeneID 85289) | 1.01 | 0.88 |
| ANXA5 (GeneID 308) | 0.88 | 0.66 |
| RAB42 (GeneID 115273) | 1.32 | 0.74 |
| UNC80 (GeneID 285175) | 1.06 | 0.72 |
| SPACA3 (GeneID 124912) | 0.76 | 0.74 |
| SLC22A5 (GeneID 6584) | 1.01 | 0.97 |
| VAMP5 (GeneID 10791) | 0.9 | 0.54 |
| NUDT3 (GeneID 11165) | 1.36 | 0.95 |
| RPL14 (GeneID 9045) | 1.19 | 0.31 |
| OMP (GeneID 4975) | 1.34 | 1.1 |
| H2BC15 (GeneID 8341) | 0.91 | 0.64 |
| SPINT1 (GeneID 6692) | 0.82 | 0.56 |
| COMMD2 (GeneID 51122) | 0.83 | 0.4 |
| ATG2B (GeneID 55102) | 1.31 | 1.05 |
| CLYBL (GeneID 171425) | 0.8 | 0.9 |
| NAPB (GeneID 63908) | 1.14 | 0.64 |
| GRXCR2 (GeneID 643226) | 1.11 | 0.99 |
